# Laboratory results from PubChem BioAssay AID1645875 (National Center for Advancing Translational Sciences (NCATS), 2021).
# By UniProt entry, the sequences of proteins in these tests, tags left out. Where a name states a change or a piece, a line headed by the entry shows the natural chain unless it says otherwise.
# UniProt Q9BV86: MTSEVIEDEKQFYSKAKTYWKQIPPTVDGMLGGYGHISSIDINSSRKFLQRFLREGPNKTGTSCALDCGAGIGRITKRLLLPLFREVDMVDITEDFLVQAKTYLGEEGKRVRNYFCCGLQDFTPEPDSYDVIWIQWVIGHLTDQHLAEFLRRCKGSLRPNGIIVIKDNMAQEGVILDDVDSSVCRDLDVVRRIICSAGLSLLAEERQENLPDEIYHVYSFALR
# This list was built around the results that the source calls inconclusive (neither active nor inactive); the mix of calls is not that of the screen. A potency beside an inconclusive call is a rough fit, not a confirmed value. Calls of active or inactive are those of the source. Calls follow the shape of the dose curve; as a rule, active = well fitted inhibition curve with a large enough effect; inconclusive = small, poorly fitted or top-dose-only effect; inactive = no such curve, though single readings can be large or run the other way.
# Molecular target: N-terminal Xaa-Pro-Lys N-methyltransferase 1 (Homo sapiens) (UniProt Q9BV86)
# Assay: Orthogonal qHTS for Inhibitors of N-terminal methyltransferase 1 (NTMT1): ThioGlo Assay
# Settings: NTMT1 SAHH-coupled ThioGlo fluorescence, 30 min; series mostly up to 84.5 µM
# Outline: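 ThioGlo3 (15 uM) detects the thiol product formed by SAHH (10 uM) from SAM (100 uM) turnover by 125 nM NTMT1 (all final), with compounds in concentration series. Readings at ex 340/em 450 nm at start and after 30 min at room temperature; data background-normalized.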
row,SMILES,Potency
1,COc1ccccc1CNCCCCCCNCCCCCCCCNCCCCCCNCc1ccccc1OC,"inconclusive: 6.14 µM [inhibitor, partial curve, poor fit]"
2,CCCC1(CCC)CCC2(CCN(CCCN(CC)CC)C2)CC1,"inconclusive: 38.8 µM [inhibitor, partial curve]"
3,O=C1NC(=O)/C(=C/c2ccc(-c3ccc(F)cc3O)o2)S1,active: 30.8 µM
4,O=C(O)c1ccc(Cc2c(-c3cccc(-c4ccccc4)c3)[nH]n(-c3nc(C(=O)O)cs3)c2=O)cc1,inactive
5,Cc1cc(F)ccc1S(=O)(=O)Nc1cnccc1C(=O)Nc1nc(-c2ccccc2)cs1,"inconclusive: 54.7 µM [inhibitor, partial curve, poor fit]"
6,Fc1cc(Nc2nc(-c3ccncc3)nc3ccccc23)ccc1-c1ccc2[nH]ncc2c1,"inconclusive: 27.4 µM [inhibitor, partial curve, poor fit]"
7,COc1cc2c(NC3CCN(C(C)C)CC3)nc(N3CCCCCC3)nc2cc1OCCCN1CCCC1,active: 38.8 µM
8,COc1ccc(C(=O)CSc2nc(C)cc(C)c2C(=O)Nc2ccccc2C)cc1,"inconclusive: 27.4 µM [inhibitor, partial curve]"
9,COc1cccc(OCCCN)c1-c1cc(Nc2cnc(C#N)cn2)n[nH]1,"inconclusive: 34.5 µM [inhibitor, partial curve, poor fit]"
10,COc1cc(OC)cc(-c2nnc3n2N=C(c2ccc(OC)c(OC)c2)CS3)c1,"inconclusive: 19.4 µM [inhibitor, partial curve]"
